Test: general procedure: solution-phase peptide synthesis; OSu active esters with NEM in DMF

For “Cbz-pGlu-Glu(γ-OBzl)-Gly-Ser(Bzl)-Asp(OBzl)₂”, the isolated yield (whole synthesis, Total yield from A) was 33%.

Boc-Glu(γ-OBzl)-Gly-Ser(Bzl)-Asp(OBzl)₂ showed a step yield (coupling step) of 90%.

— patent EP0360481 (dated 1990)
